Source: paper PMC8336351
Results are given in words; binding and its absence hold for the method and conditions named. In cells and extracts the contact can be indirect. Some results given as binding are weak or reduced against the parent protein; the word gives no strength.

Chains of the proteins cited; added tags and fusions are not shown.
UniProt Q8R4B8: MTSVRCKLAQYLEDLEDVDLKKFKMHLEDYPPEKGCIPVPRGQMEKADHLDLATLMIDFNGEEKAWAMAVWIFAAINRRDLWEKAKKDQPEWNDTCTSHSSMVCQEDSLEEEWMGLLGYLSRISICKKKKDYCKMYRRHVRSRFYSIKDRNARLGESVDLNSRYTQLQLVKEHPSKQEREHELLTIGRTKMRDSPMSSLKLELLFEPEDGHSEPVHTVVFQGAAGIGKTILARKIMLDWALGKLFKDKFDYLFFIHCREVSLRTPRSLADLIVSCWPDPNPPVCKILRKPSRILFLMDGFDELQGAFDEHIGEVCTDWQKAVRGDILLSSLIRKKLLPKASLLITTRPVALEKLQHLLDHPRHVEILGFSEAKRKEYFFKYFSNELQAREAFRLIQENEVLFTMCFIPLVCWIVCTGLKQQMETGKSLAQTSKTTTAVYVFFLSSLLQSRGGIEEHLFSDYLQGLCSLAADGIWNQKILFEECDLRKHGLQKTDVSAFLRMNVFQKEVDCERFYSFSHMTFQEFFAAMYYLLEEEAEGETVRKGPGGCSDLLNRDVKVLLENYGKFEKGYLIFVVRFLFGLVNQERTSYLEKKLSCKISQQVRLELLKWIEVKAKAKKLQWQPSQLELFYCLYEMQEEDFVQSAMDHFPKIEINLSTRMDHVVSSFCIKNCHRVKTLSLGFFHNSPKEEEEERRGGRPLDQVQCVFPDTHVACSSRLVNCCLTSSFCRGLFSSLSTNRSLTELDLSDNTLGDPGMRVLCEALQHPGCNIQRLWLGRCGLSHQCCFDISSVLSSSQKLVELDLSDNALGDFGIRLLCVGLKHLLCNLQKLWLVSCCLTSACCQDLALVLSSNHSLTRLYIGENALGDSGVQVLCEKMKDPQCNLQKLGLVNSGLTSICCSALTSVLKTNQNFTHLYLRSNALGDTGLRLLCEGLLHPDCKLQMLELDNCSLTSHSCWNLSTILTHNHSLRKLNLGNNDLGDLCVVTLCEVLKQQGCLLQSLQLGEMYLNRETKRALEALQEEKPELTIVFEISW

Molecular target: T1, thioredoxin-interacting protein (mouse (endogenous in C57BL/6 J mouse liver)) (UniProt Q8BG60)
T1 sequence: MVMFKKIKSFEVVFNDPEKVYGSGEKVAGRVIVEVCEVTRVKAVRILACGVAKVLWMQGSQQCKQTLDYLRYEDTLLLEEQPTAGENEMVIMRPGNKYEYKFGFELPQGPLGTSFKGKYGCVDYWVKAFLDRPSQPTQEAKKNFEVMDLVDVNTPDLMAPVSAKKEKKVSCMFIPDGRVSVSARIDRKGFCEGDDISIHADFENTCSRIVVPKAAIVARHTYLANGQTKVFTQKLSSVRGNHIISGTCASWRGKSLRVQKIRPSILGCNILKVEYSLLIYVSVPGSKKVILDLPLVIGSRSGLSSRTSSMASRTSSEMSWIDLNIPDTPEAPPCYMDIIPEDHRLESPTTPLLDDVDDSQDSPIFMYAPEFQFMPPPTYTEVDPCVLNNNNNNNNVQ
Test: co-IP; liver tissue lysates of C57BL/6 J mice (normal diet, high fat & sucrose diet model, and groups treated with BER + CUR, LBC, LSDBC or DEAE-DEX@LSDBC); supernatant with antibody (anti-TXNIP or anti-p300, 1 μg/100 μL) at 4 °C overnight, protein A/G-agarose beads 4 h at 4 °C, washed 4 times with lysis buffer; western blot

## nucleotide-binding oligomerization domain, leucine-rich repeat or pyrin domain-containing 3 (from UniProt Q8R4B8 1-1033)
  binding: binds
